We go through 1 molecule from patent EP3470426A1.

The test concerns the target T1, mouse CD137-Fc chimeric protein (mouse), P20334.
T1 chain: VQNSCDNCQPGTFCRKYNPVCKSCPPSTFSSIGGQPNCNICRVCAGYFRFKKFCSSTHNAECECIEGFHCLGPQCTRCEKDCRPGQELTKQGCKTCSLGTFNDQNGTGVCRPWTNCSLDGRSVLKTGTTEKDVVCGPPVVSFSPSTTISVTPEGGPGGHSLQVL
The test is described as follows: SPR, CD137-Fc captured, binder injected. To be noted: remark: other sources report otherwise. On the technique in general: SPR reads the build-up and loss of mass on a sensor chip optically.

Results are given in words; binding and its absence hold for the method and conditions named. Some binding calls cover weakened binding; strength is not graded here. Where a sequence is shown, tags or fusion partners need not be part of it.

B1: PRO963 (protein)
chain: DIQMTQSPSSLSASVGDRVTITCQASQSINDYLAWYQQKPGKAPKLLIYKASTLASGVPSRFSGSGSGTDFTLTISSLQPEDFATYYCQQGYIITDIDNVFGTGTKVTVLGGGGGSQVQLQESGPGLVKPSETLSLTCKVSGFSFSNSYWICWIRQPPGKGLEWIGCTFVGSSDSTYYANWAKGRVTISVDSSKNQFSLKLSSVTAADTAVYYCARHPSDAVYGYANNLWGQGTLVTVSSGGGGSGGGGSGGGGSGGGGSIQMTQSPSSLSASVGDRVTITCQASQSINNVLAWYQQKPGKAPKLLIYRASTLASGVPSRFSGSGSGTDFTLTISSLQPEDFATYYCQSSYGNYGDFGTGTKVTVLGGGGGSQVQLQESGPGLVKPSETLSLTCKVSGFSFSSGYDMCWIRQPPGKGLEWIGCVVAGSVDITYYASWAKGRVTISVDSSKNQFSLKLSSVTAADTAVYYCARKDAYSDAFNLWGQGTLVTVSSGGGGSGGGGSIQMTQSPSSLSASVGDRVTITCQSSESVYSNNQLSWYQQKPGQPPKLLIYDASDLASGVPSRFSGSGSGTDFTLTISSLQPEDFATYYCAGGFSSSSDTAFGGGTKLTVLGGGGGSGGGGSGGGGSGGGGSEVQLVESGGGLVQPGGSLRLSCAASGFSLSSNAMGWVRQAPGKGLEYIGIISVGGFTYYASWAKGRFTISRDNSKNTVYLQMNSLRAEDTATYFCARDRHGGDSSGAFYLWGQGTLVTVSS
Turning to B1, the binding entry is “binds”.
